Some of the results follow.

By UniProt entry, the sequences of proteins in these tests, tags left out.
UniProt Q0JBA9, entry or part of it: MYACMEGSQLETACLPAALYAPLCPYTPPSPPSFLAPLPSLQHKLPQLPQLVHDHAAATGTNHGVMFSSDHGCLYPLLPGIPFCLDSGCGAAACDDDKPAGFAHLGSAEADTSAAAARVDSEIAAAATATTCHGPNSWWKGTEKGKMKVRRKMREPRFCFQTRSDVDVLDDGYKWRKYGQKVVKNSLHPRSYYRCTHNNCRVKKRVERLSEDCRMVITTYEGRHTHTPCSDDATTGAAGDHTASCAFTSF

The target in the experiment is OsWRKY34 (Oryza sativa, UniProt Q0JBA9 1-250). Description: protein-binding microarray (RPBM); PBS, 2% BSA, 51.3 ng/ul salmon testes DNA, 50 uM zinc acetate, 200 nM TF, 25 C, 1 h; high values mean tight binding. Particulars: protein: recombinant; tags: N-terminal polyhistidine and DsRed monomer fusion (pET32a); label: CyDye5-dUTP incorporated in the synthesized complementary strand; 3' TTTTT single-stranded linker to array surface; dsDNA, one strand shown. In short, it runs like this: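 A custom Agilent array was converted to double-stranded form by primer extension with Cy5-dUTP and blocked with 2% BSA. Protein at 200 nM in PBS with 2% BSA, salmon testes DNA and 50 µM zinc acetate was applied for 1 h at 25 °C, followed by washing. The proteins were polyhistidine–DsRed N-terminal fusions of transcription factors, expressed in E. coli BL21-CodonPlus and Ni–NTA-purified. The binding signal is per-feature fluorescence intensity (arbitrary units) from an Axon 4000B scanner.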
As to “TCAACAACTCTGTCTGCACCCTCTCCTACAAGCCTTCATGCGGAGTCACCTAGTGCAG”, the binding signal is 8230 fluorescence intensity (a.u.). With “TATCACATCAATTCAAAATTTTCTCTATCCTACCCCTTAACGGAGTCACCTAGTGCAG”, the binding signal was 8100 fluorescence intensity (a.u.). For “CTGTAGAGAAATACTACACTACTGTACACTACATTCCTGCCGGAGTCACCTAGTGCAG”, the binding signal is 8350 fluorescence intensity (a.u.). For “AGGTTATAAGACGTTTTGACTTTGGTTAAAGTCAAACTACCGGAGTCACCTAGTGCAG”, the binding signal is 9600 fluorescence intensity (a.u.).

Regarding “GGATGTAGATGCTCTTTTTTTTTTCTTTCTCTTTGACAGGCGGAGTCACCTAGTGCAG”, the binding signal is 9370 fluorescence intensity (a.u.). “TCAGTTTTATCTTGTACGGTACTATTGATGTTAATGATTCCGGAGTCACCTAGTGCAG”: the binding signal is 8870 fluorescence intensity (a.u.).

On to “AGTTCTTGGAGTCACATGGTTGGTGGTGGTGTGGGCAGTTCGGAGTCACCTAGTGCAG”, for which the binding signal was 14200 fluorescence intensity (a.u.).

Take “CTTTTTGGTGCTTGCAATGTTTATTTGTGGTTTATTGATTCGGAGTCACCTAGTGCAG”: the binding signal is 9840 fluorescence intensity (a.u.).

Consider “ACACGGTCACAATACGTCTCAACCAGGGGTAGCTGTCCTTCGGAGTCACCTAGTGCAG”, for which the binding signal is 9570 fluorescence intensity (a.u.). As to “AACTGTATCATACCACACTTTCTTACCCTTGGGACTCATACGGAGTCACCTAGTGCAG”, the binding signal is 9180 fluorescence intensity (a.u.). Turning to “ACTGCTTGTTTAATTATCTTTCGCTTTCCAGTTTAATTATCGGAGTCACCTAGTGCAG”, the binding signal is 10900 fluorescence intensity (a.u.). The result for “AATTTTTGGGTGTCACATCGAACGTTTGACCGGATGTCGGCGGAGTCACCTAGTGCAG” reads 9390 fluorescence intensity (a.u.). With “CTCATCCGAGTGGGTGGGCGGGGAGAGATCTAGGGCTTGCCGGAGTCACCTAGTGCAG” the figure was 11700 fluorescence intensity (a.u.); with “TGCACCTGTTTGGCTTAGTACCAGTGCGCTACTGGTTTCACGGAGTCACCTAGTGCAG”, 9680 fluorescence intensity (a.u.). On to “ACGCCGATGCATGATGATTGCTGTAAATCATATACACTTCCGGAGTCACCTAGTGCAG”, for which the binding signal was 8070 fluorescence intensity (a.u.). Take “GATCAACTCCATCCTTCTAGATCTGCATACCTCCAAACACCGGAGTCACCTAGTGCAG”: the binding signal is 10400 fluorescence intensity (a.u.). For “ATATATCATTCACTTATTTTGCTGTGTTTTCTTTTCTTACCGGAGTCACCTAGTGCAG”, the binding signal is 8750 fluorescence intensity (a.u.). For the sequence “TTTTCCTCTGTATTGCACCGTCACTCGTAGTCTACTCCATCGGAGTCACCTAGTGCAG”, the binding signal is 8380 fluorescence intensity (a.u.). “CATTACTTTTCTGTTCTAAGATATAAACTCTTTTGTGTTTCGGAGTCACCTAGTGCAG”: the binding signal is 8890 fluorescence intensity (a.u.).

“TTCTTCATGCTGTTCCAGACTCTGGTACTTTCTCTGTTCACGGAGTCACCTAGTGCAG”: the binding signal was 8450 fluorescence intensity (a.u.). Consider “AGTTTGCAACTCTTCCCTGCTTCCATGTTACCGACACTTACGGAGTCACCTAGTGCAG”, for which the binding signal is 13200 fluorescence intensity (a.u.). For the sequence “TTAAGGTTAGTTACTCCTCATTTTTGTTAACACGTCTTTTCGGAGTCACCTAGTGCAG”, the binding signal was 13100 fluorescence intensity (a.u.). For the sequence “TGACGCCGTTGACTTTTTATCTAATGTTTGACTATTCGTCCGGAGTCACCTAGTGCAG”, the binding signal is 43500 fluorescence intensity (a.u.). Take “CGAAGCAACGAACCCAACACACGCATTATATCTAGTACAGCGGAGTCACCTAGTGCAG”: the binding signal was 8260 fluorescence intensity (a.u.).

As for “ATGTTTTCTTTTTGTTCTTTTCATAATTTATGTTAATACACGGAGTCACCTAGTGCAG”, the binding signal was 8310 fluorescence intensity (a.u.). Turning to “GTCACTCAACTCCCAAAGTCCAAAGTCTCCTAGCTATATACGGAGTCACCTAGTGCAG”, the binding signal is 8110 fluorescence intensity (a.u.). As to “ATCTATCTCTTCCCATGCATTTTTCACCTACTAGCTAGTACGGAGTCACCTAGTGCAG”, the binding signal was 9210 fluorescence intensity (a.u.).

Regarding “TAAATTCATCGTCGGCTCACTCTCTCTCTTTCCTACCCTCCGGAGTCACCTAGTGCAG”, the binding signal was 8960 fluorescence intensity (a.u.). For the sequence “GCCTAAGTTTATCTCATTTCTATGCTTAATTATCAAAACACGGAGTCACCTAGTGCAG”, the binding signal was 8530 fluorescence intensity (a.u.). With “GGTGTTATCTCTTTCTTTAGTTTGTTATTCTAAGTAGTTTCGGAGTCACCTAGTGCAG” the figure was 11100 fluorescence intensity (a.u.); with “TTGGTGACTAAGCAGCTAGCTCATATTCCGTTTCAGCTTCCGGAGTCACCTAGTGCAG”, 9770 fluorescence intensity (a.u.). As for “CATTAATCACCCTTCATCATTAATTAATTTTCCTCGACAACGGAGTCACCTAGTGCAG”, the binding signal was 9180 fluorescence intensity (a.u.). The result for “CTTGTTTGTTGTTCTACTTAGGGCCTGTTTTGCAGGGTTTCGGAGTCACCTAGTGCAG” reads 10700 fluorescence intensity (a.u.); that for “CAGCAGAACTCACTCACAGTCTCAGTCTCAGTCTCACTGCCGGAGTCACCTAGTGCAG”, 9710 fluorescence intensity (a.u.); that for “TTATGATGTTGGACAGCGCCTCCTGCTCCGCCCACTCACCCGGAGTCACCTAGTGCAG”, 8670 fluorescence intensity (a.u.).

In the case of “GAACATGTGAGTCCCACCATATATTATTTATTGTTTTTTACGGAGTCACCTAGTGCAG”, the binding signal is 8220 fluorescence intensity (a.u.). As to “CGCGCCGTCGTCCAGCCACCGTCACGCCGCGCGGGGCGCCCGGAGTCACCTAGTGCAG”, the binding signal is 10200 fluorescence intensity (a.u.). “AGATGGACTAGATACGGTGTGGTTGTAATCTATAGGGGTCCGGAGTCACCTAGTGCAG”: the binding signal was 8560 fluorescence intensity (a.u.). “CCACTCCACTGCGGGGCCCGCACCCTCGCATGCCCGCCTCCGGAGTCACCTAGTGCAG”: the binding signal is 8470 fluorescence intensity (a.u.). As to “GACCAGCTGGTGTACATATGTGTTCAAGTGTTGACCATACCGGAGTCACCTAGTGCAG”, the binding signal was 9050 fluorescence intensity (a.u.). As to “TTTCATGTCGCTCCTTGTCGTTGCTGCTCTTTGGGTGCAACGGAGTCACCTAGTGCAG”, the binding signal is 11100 fluorescence intensity (a.u.). Take “GTCTGTAGATGGTGGTTGGCCTGATCGATCTCCTGATATTCGGAGTCACCTAGTGCAG”: the binding signal is 9530 fluorescence intensity (a.u.).

The values are drawn from article PMC7819943, “Rice protein-binding microarrays: a tool to detect cis-acting elements near promoter regions in rice”.
